These results are taken from PMC7158214 (Clinical Pharmacology and Therapeutics, 2020).

Structures are written as SMILES.

Data set [1] relates to OATP1B. Particulars: +RIF600.
Data set [2] relates to OATP1B. The data set can be described thus: Nonlinear regression of AUCR^-1 vs rifampicin Cmax. The settings on record: from AUCR based on AUC0-24h. Format: in vivo, human.

Consider `CC(C)c1c(C(=O)Nc2ccccc2)c(-c2ccccc2)c(-c2ccc(F)cc2)n1CC[C@@H](O)C[C@@H](O)CC(=O)O` [Atorvastatin, atorvastatin], for which the “AUC0-24h Geometric Mean Ratio +RIF/Control (90% CI)” value in data set [1] stood at 7.3. In data set [2], the “fRIF (fraction sensitive to inhibition by rifampicin)” value is 0.918 ± 0.032.
